Experimental data reported in PMC9456370.
Results are given in words; binding and its absence hold for the method and conditions named. In cells and extracts the contact can be indirect. A yes stands for co-enrichment or nearness to the bait. Other partners may have been found. For some of these results: Sequences can lack the tags named with a protein.

Amino acid sequences for entries named in this document (tags omitted).
UniProt P0AB58: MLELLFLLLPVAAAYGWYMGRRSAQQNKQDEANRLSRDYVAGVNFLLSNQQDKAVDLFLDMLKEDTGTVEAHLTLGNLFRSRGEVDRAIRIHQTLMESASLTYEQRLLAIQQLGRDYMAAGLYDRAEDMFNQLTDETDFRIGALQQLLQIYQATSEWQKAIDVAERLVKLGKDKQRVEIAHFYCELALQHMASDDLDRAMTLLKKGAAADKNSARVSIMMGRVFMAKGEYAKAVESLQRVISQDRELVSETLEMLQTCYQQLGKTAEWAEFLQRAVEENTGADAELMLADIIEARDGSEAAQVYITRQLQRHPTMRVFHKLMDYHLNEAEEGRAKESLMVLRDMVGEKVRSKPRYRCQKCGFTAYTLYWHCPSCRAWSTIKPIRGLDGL

Assays:
[1] = target: His6-tagged LapB protein (E. coli) (UniProt P0AB58); assay: affinity purification with mass spectrometry; His6-LapB from IM fraction solubilized with 2% octyl-β-D-glucoside, on nickel-nitrilotriacetic acid beads, eluted with 250 mM imidazole; co-eluting proteins resolved on 12% SDS-PAGE (Coomassie) and identified by MALDI-TOF
[2] = target: T1, His6-tagged LapD protein (E. coli K-12) (UniProt P0ADW3); assay: affinity purification with mass spectrometry; His6-LapD (pCA24N JW5539 in BW25113) from IM fraction solubilized with 2% octyl-β-D-glucoside, on nickel-nitrilotriacetic acid beads, eluted with 250 mM and 100 mM imidazole; co-eluting proteins resolved on 12% SDS-PAGE (Coomassie) and identified by MALDI-TOF
T1 sequence: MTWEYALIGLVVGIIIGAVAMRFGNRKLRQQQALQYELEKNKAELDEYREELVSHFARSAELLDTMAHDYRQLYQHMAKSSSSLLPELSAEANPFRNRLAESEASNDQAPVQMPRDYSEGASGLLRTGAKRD

B1: LapD (protein, UniProt P0ADW3 1-132)
chain: MTWEYALIGLVVGIIIGAVAMRFGNRKLRQQQALQYELEKNKAELDEYREELVSHFARSAELLDTMAHDYRQLYQHMAKSSSSLLPELSAEANPFRNRLAESEASNDQAPVQMPRDYSEGASGLLRTGAKRD
B1 was tested, and the binding [1] was “binds”.

B2: LapA (protein, UniProt P0ACV4 1-102)
chain: MKYLLIFLLVLAIFVISVTLGAQNDQQVTFNYLLAQGEYRISTLLAVLFAAGFAIGWLICGLFWLRVRVSLARAERKIKRLENQLSPATDVAVVPHSSAAKE
In the case of B2, the binding [1] is reported as “binds” and the binding [2] is reported as “binds”.

B3: FabH (enzyme, UniProt P0A6R0 1-317)
chain: MYTKIIGTGSYLPEQVRTNADLEKMVDTSDEWIVTRTGIRERHIAAPNETVSTMGFEAATRAIEMAGIEKDQIGLIVVATTSATHAFPSAACQIQSMLGIKGCPAFDVAAACAGFTYALSVADQYVKSGAVKYALVVGSDVLARTCDPTDRGTIIIFGDGAGAAVLAASEEPGIISTHLHADGSYGELLTLPNADRVNPENSIHLTMAGNEVFKVAVTELAHIVDETLAANNLDRSQLDWLVPHQANLRIISATAKKLGMSMDNVVVTLDRHGNTSAASVPCALDEAVRDGRIKPGQLVLLEAFGGGFTWGSALVRF
With B3 the binding [2] was “binds”.

B4: FabY (enzyme, UniProt P0ADQ2 1-329)
chain: MSQLPGLSRETRESIAMYHLRVPQTEEELERYYQFRWEMLRKPLHQPKGSERDAWDAMAHHQMVVDEQGNLVAVGRLYINADNEASIRFMAVHPDVQDKGLGTLMAMTLESVARQEGVKRVTCSAREDAVEFFAKLGFVNQGEITTPTTTPIRHFLMIKPVATLDDILHRGDWCAQLQQAWYEHIPLSEKMGVRIQQYTGQKFITTMPETGNQNPHHTLFAGSLFSLATLTGWGLIWLMLRERHLGGTIILADAHIRYSKPISGKPHAVADLGALSGDLDRLARGRKARVQMQVEIFGDETPGAVFEGTYIVLPAKPFGPYEEGGNEEE
For B4, the binding [2] was “binds”.

B5: MukB (protein, UniProt P22523 1-1486)
chain: MIERGKFRSLTLINWNGFFARTFDLDELVTTLSGGNGAGKSTTMAAFVTALIPDLTLLHFRNTTEAGATSGSRDKGLHGKLKAGVCYSMLDTINSRHQRVVVGVRLQQVAGRDRKVDIKPFAIQGLPMSVQPTQLVTETLNERQARVLPLNELKDKLEAMEGVQFKQFNSITDYHSLMFDLGIIARRLRSASDRSKFYRLIEASLYGGISSAITRSLRDYLLPENSGVRKAFQDMEAALRENRMTLEAIRVTQSDRDLFKHLISEATNYVAADYMRHANERRVHLDKALEFRRELHTSRQQLAAEQYKHVDMARELAEHNGAEGDLEADYQAASDHLNLVQTALRQQEKIERYEADLDELQIRLEEQNEVVAEAIERQQENEARAEAAELEVDELKSQLADYQQALDVQQTRAIQYNQAIAALNRAKELCHLPDLTADCAAEWLETFQAKELEATEKMLSLEQKMSMAQTAHSQFEQAYQLVVAINGPLARNEAWDVARELLREGVDQRHLAEQVQPLRMRLSELEQRLREQQEAERLLADFCKRQGKNFDIDELEALHQELEARIASLSDSVSNAREERMALRQEQEQLQSRIQSLMQRAPVWLAAQNSLNQLSEQCGEEFTSSQDVTEYLQQLLEREREAIVERDEVGARKNAVDEEIERLSQPGGSEDQRLNALAERFGGVLLSEIYDDVSLEDAPYFSALYGPSRHAIVVPDLSQVTEHLEGLTDCPEDLYLIEGDPQSFDDSVFSVDELEKAVVVKIADRQWRYSRFPEVPLFGRAARESRIESLHAEREVLSERFATLSFDVQKTQRLHQAFSRFIGSHLAVAFESDPEAEIRQLNSRRVELERALSNHENDNQQQRIQFEQAKEGVTALNRILPRLNLLADDSLADRVDEIRERLDEAQEAARFVQQFGNQLAKLEPIVSVLQSDPEQFEQLKEDYAYSQQMQRDARQQAFALTEVVQRRAHFSYSDSAEMLSGNSDLNEKLRERLEQAEAERTRAREALRGHAAQLSQYNQVLASLKSSYDTKKELLNDLQRELQDIGVRADSGAEERARIRRDELHAQLSNNRSRRNQLEKALTFCEAEMDNLTRKLRKLERDYFEMREQVVTAKAGWCAVMRMVKDNGVERRLHRRELAYLSADDLRSMSDKALGALRLAVADNEHLRDVLRMSEDPKRPERKIQFFVAVYQHLRERIRQDIIRTDDPVEAIEQMEIELSRLTEELTSREQKLAISSRSVANIIRKTIQREQNRIRMLNQGLQNVSFGQVNSVRLNVNVRETHAMLLDVLSEQHEQHQDLFNSNRLTFSEALAKLYQRLNPQIDMGQRTPQTIGEELLDYRNYLEMEVEVNRGSDGWLRAESGALSTGEAIGTGMSILVMVVQSWEDESRRLRGKDISPCRLLFLDEAARLDARSIATLFELCERLQMQLIIAAPENISPEKGTTYKLVRKVFQNTEHVHVVGLRGFAPQLPETLPGTDEAPSQAS
In the case of B5, the binding [2] is reported as “binds”.

B6: MukF (protein, UniProt P60293 1-440)
chain: MSEFSQTVPELVAWARKNDFSISLPVDRLSFLLAVATLNGERLDGEMSEGELVDAFRHVSDAFEQTSETIGVRANNAINDMVRQRLLNRFTSEQAEGNAIYRLTPLGIGITDYYIRQREFSTLRLSMQLSIVAGELKRAADAAEEGGDEFHWHRNVYAPLKYSVAEIFDSIDLTQRLMDEQQQQVKDDIAQLLNKDWRAAISSCELLLSETSGTLRELQDTLEAAGDKLQANLLRIQDATMTHDDLHFVDRLVFDLQSKLDRIISWGQQSIDLWIGYDRHVHKFIRTAIDMDKNRVFAQRLRQSVQTYFDEPWALTYANADRLLDMRDEEMALRDEEVTGELPEDLEYEEFNEIREQLAAIIEEQLAVYKTRQVPLDLGLVVREYLSQYPRARHFDVARIVIDQAVRLGVAQADFTGLPAKWQPINDYGAKVQAHVIDKY
For B6, the binding [2] was “binds”.

B7: MukE (protein, UniProt P22524 1-234)
chain: MSSTNIEQVMPVKLAQALANPLFPALDSALRSGRHIGLDELDNHAFLMDFQEYLEEFYARYNVELIRAPEGFFYLRPRSTTLIPRSVLSELDMMVGKILCYLYLSPERLANEGIFTQQELYDELLTLADEAKLLKLVNNRSTGSDVDRQKLQEKVRSSLNRLRRLGMVWFMGHDSSKFRITESVFRFGADVRAGDDPREAQRRLIRDGEAMPIENHLQLNDETEENQPDSGEEE
With B7 the binding [2] was “binds”.

B8: MreC (protein, UniProt P16926 1-367)
chain: MKPIFSRGPSLQIRLILAVLVALGIIIADSRLGTFSQIRTYMDTAVSPFYFVSNAPRELLDGVSQTLASRDQLELENRALRQELLLKNSELLMLGQYKQENARLRELLGSPLRQDEQKMVTQVISTVNDPYSDQVVIDKGSVNGVYEGQPVISDKGVVGQVVAVAKLTSRVLLICDATHALPIQVLRNDIRVIAAGNGCTDDLQLEHLPANTDIRVGDVLVTSGLGGRFPEGYPVAVVSSVKLDTQRAYTVIQARPTAGLQRLRYLLLLWGADRNGANPMTPEEVHRVANERLMQMMPQVLPSPDAMGPKLPEPATGIAQPTPQQPATGNAATAPAAPTQPAANRSPQRATPPQSGAQPPARAPGGQ
In the case of B8, the binding [2] is reported as “binds”.

B9: ZapD (protein, UniProt P36680 1-247)
chain: MQTQVLFEHPLNEKMRTWLRIEFLIQQLTVNLPIVDHAGALHFFRNVSELLDVFERGEVRTELLKELDRQQRKLQTWIGVPGVDQSRIEALIQQLKAAGSVLISAPRIGQFLREDRLIALVRQRLSIPGGCCSFDLPTLHIWLHLPQAQRDSQVETWIASLNPLTQALTMVLDLIRQSAPFRKQTSLNGFYQDNGGDADLLRLNLSLDSQLYPQISGHKSRFAIRFMPLDTENGQVPERLDFELACC
With B9 the binding [2] was “binds”.

B10: FklB (enzyme, UniProt P0A9L3 1-206)
chain: MTTPTFDTIEAQASYGIGLQVGQQLSESGLEGLLPEALVAGIADALEGKHPAVPVDVVHRALREIHERADAVRRQRFQAMAAEGVKYLEENAKKEGVNSTESGLQFRVINQGEGAIPARTDRVRVHYTGKLIDGTVFDSSVARGEPAEFPVNGVIPGWIEALTLMPVGSKWELTIPQELAYGERGAGASIPPFSTLVFEVELLEIL
B10 was tested, and the binding [2] was “binds”.

B11: WaaC (enzyme, UniProt P24173 1-319)
chain: MRVLIVKTSSMGDVLHTLPALTDAQQAIPGIKFDWVVEEGFAQIPSWHAAVERVIPVAIRRWRKAWFSAPIKAERKAFREALQAENYDAVIDAQGLVKSAALVTRLAHGVKHGMDWQTAREPLASLFYNRKHHIAKQQHAVERTRELFAKSLGYSKPQTQGDYAIAQHFLTNLPTDAGEYAVFLHATTRDDKHWPEEHWRELIGLLADSGIRIKLPWGAPHEEERAKRLAEGFAYVEVLPKMSLEGVARVLAGAKFVVSVDTGLSHLTAALDRPNITVYGPTDPGLIGGYGKNQMVCRAPRENLINLNSQAVLEKLSSL
For B11, the binding [1] was “binds”.

B12: HldE (enzyme, UniProt P76658 1-477)
chain: MKVTLPEFERAGVMVVGDVMLDRYWYGPTSRISPEAPVPVVKVNTIEERPGGAANVAMNIASLGANARLVGLTGIDDAARALSKSLADVNVKCDFVSVPTHPTITKLRVLSRNQQLIRLDFEEGFEGVDPQPLHERINQALSSIGALVLSDYAKGALASVQQMIQLARKAGVPVLIDPKGTDFERYRGATLLTPNLSEFEAVVGKCKTEEEIVERGMKLIADYELSALLVTRSEQGMSLLQPGKAPLHMPTQAQEVYDVTGAGDTVIGVLAATLAAGNSLEEACFFANAAAGVVVGKLGTSTVSPIELENAVRGRADTGFGVMTEEELKLAVAAARKRGEKVVMTNGVFDILHAGHVSYLANARKLGDRLIVAVNSDASTKRLKGDSRPVNPLEQRMIVLGALEAVDWVVSFEEDTPQRLIAGILPDLLVKGGDYKPEEIAGSKEVWANGGEVLVLNFEDGCSTTNIIKKIQQDKKG
In the case of B12, the binding [2] is reported as “binds”.
